# Assay results as given in the supplement of paper PMC10849652.
# The chains behind the UniProt entries cited, without tags or fusion partners. Where a name states a change or a piece, a line headed by the entry shows the natural chain unless it says otherwise.
# UniProt P0DMU9: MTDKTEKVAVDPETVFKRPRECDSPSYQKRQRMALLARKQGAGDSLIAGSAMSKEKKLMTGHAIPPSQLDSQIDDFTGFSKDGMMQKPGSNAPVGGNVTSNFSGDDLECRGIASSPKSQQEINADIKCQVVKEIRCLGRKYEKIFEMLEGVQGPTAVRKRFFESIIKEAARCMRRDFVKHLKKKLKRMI
# UniProt Q96C86: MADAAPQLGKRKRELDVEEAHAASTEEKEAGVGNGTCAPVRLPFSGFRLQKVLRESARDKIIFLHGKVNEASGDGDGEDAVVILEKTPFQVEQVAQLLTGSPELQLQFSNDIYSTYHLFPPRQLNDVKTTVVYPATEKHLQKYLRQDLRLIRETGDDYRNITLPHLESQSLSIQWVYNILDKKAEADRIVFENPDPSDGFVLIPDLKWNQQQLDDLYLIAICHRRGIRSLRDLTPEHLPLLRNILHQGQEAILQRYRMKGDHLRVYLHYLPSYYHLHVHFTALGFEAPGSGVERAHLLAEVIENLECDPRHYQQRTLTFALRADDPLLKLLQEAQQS
# UniProt P04080: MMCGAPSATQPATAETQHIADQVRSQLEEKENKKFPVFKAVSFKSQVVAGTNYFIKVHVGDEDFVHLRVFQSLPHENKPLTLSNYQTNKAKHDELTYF
# UniProt Q9UJW0, whole entry, looked up: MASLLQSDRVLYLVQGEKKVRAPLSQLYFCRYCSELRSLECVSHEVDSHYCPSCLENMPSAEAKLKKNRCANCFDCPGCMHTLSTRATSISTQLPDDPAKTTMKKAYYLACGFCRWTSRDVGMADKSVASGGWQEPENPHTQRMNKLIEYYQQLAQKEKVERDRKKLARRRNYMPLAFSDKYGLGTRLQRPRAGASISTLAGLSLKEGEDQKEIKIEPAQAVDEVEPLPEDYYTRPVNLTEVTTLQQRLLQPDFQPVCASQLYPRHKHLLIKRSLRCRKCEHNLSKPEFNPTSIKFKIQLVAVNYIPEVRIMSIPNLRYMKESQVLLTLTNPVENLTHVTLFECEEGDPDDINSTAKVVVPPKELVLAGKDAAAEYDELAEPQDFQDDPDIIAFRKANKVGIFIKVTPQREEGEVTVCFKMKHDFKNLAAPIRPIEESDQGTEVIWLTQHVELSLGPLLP
# UniProt Q7Z7A3: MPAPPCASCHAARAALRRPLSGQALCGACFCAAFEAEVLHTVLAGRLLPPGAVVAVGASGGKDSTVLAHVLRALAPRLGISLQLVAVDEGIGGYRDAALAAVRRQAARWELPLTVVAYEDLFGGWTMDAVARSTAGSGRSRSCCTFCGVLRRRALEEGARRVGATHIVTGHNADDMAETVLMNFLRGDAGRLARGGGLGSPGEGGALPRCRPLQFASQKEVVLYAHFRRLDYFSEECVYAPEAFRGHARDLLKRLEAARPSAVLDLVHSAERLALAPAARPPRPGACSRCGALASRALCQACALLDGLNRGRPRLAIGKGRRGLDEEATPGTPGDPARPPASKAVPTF
# UniProt Q69YN2: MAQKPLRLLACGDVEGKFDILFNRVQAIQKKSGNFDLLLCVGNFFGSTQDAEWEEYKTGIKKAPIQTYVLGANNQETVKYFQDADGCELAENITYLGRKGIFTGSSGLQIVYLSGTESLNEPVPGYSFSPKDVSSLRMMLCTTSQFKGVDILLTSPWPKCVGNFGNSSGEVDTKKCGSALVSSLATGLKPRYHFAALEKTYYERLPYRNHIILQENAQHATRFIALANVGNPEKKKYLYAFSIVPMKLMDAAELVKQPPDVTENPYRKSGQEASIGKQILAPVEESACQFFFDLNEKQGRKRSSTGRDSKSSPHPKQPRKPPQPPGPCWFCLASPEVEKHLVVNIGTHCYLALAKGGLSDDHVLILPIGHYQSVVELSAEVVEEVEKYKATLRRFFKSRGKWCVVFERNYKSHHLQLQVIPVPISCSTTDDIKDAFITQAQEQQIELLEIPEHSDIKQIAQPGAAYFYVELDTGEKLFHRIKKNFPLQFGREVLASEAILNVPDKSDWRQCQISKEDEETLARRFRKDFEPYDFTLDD
# UniProt Q01459: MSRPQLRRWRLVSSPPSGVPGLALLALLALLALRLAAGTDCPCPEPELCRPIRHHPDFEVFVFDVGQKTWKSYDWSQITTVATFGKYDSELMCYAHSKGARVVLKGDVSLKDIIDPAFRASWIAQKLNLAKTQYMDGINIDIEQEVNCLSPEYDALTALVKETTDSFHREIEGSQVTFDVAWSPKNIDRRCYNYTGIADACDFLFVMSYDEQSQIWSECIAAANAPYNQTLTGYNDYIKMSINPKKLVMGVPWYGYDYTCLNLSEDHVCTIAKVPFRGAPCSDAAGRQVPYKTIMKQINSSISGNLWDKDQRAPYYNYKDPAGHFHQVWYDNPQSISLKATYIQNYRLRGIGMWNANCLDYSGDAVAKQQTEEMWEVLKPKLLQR
# UniProt Q8N465: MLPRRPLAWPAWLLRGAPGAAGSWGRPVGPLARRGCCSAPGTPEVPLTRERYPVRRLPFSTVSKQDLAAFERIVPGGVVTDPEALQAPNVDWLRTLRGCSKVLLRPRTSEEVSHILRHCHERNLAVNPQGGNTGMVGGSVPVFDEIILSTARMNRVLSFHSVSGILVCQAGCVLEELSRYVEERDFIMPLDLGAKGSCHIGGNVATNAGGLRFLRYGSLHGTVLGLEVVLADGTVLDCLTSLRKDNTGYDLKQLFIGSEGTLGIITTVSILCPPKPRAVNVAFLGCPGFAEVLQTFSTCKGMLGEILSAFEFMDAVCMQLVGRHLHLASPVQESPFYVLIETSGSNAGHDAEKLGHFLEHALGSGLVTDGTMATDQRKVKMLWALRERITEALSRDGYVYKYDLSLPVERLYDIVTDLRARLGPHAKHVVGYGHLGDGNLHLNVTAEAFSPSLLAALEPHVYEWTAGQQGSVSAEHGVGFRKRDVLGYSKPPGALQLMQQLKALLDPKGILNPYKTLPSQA
# UniProt Q9NTM9: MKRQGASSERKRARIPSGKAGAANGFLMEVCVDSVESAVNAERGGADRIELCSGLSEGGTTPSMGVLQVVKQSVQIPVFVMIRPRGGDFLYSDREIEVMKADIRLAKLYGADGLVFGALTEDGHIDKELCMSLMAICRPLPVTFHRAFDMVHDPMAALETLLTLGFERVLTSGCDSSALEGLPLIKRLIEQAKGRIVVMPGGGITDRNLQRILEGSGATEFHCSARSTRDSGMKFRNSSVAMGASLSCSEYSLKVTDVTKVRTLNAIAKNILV
# UniProt Q9Y6A2: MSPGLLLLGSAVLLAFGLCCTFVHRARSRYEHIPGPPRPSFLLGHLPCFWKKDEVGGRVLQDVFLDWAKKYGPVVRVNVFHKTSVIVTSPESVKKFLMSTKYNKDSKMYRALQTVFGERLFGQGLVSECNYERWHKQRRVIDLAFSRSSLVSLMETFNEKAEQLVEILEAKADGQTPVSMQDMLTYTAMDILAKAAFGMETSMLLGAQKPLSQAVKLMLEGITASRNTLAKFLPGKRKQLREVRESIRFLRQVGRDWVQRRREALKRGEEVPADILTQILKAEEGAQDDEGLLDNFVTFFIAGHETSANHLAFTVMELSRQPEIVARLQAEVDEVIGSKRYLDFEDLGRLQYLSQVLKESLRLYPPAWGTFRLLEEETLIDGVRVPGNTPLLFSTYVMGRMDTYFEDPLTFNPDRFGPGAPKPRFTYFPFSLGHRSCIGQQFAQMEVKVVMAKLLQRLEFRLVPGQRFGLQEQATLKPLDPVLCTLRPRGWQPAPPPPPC
# UniProt P32321: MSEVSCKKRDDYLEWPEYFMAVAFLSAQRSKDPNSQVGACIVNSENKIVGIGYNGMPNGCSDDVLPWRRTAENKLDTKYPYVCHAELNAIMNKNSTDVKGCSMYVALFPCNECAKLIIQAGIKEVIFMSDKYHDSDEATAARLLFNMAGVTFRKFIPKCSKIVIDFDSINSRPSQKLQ
# UniProt P07108: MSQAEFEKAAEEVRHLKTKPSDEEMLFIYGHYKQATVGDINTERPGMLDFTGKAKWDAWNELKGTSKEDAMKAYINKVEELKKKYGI
# UniProt Q12996: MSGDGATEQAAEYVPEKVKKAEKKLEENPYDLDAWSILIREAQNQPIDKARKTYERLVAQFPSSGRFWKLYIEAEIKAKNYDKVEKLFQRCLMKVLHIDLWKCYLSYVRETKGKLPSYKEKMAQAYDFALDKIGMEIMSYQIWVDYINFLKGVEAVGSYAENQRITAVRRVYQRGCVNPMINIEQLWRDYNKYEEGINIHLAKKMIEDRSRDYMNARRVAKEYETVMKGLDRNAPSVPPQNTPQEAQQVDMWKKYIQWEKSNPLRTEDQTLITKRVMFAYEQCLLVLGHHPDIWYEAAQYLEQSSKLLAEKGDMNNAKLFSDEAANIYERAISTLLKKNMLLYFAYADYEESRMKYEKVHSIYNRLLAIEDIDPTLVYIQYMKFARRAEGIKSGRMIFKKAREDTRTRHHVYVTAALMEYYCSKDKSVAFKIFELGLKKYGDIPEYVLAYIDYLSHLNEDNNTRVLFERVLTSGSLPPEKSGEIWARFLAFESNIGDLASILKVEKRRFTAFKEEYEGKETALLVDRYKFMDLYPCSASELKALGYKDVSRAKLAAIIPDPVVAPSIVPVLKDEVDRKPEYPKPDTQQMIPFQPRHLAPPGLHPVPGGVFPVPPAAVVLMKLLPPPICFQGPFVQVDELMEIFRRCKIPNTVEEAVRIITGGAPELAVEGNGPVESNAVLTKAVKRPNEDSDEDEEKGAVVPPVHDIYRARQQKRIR
# UniProt O43310: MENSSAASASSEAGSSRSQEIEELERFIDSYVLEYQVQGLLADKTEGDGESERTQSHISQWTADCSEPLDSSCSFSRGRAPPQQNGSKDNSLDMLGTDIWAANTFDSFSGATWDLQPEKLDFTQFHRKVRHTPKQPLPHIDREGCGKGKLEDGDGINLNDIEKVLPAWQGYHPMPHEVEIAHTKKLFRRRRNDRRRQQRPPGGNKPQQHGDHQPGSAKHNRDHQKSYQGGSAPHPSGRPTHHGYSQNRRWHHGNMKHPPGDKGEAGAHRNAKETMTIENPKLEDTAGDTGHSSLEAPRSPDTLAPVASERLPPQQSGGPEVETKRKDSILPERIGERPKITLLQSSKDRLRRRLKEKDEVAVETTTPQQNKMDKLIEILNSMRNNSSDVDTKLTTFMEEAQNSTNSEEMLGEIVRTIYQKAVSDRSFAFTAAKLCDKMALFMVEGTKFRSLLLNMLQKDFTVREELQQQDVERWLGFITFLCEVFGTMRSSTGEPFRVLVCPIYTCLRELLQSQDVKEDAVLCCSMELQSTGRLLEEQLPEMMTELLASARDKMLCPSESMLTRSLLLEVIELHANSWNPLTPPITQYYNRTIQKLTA
# UniProt Q9BTE1, whole entry, looked up: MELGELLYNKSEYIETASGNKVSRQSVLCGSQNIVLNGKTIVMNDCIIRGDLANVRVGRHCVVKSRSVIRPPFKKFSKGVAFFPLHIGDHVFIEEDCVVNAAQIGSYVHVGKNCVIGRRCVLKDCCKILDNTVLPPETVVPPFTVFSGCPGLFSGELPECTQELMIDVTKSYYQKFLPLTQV
# UniProt Q9NPI6: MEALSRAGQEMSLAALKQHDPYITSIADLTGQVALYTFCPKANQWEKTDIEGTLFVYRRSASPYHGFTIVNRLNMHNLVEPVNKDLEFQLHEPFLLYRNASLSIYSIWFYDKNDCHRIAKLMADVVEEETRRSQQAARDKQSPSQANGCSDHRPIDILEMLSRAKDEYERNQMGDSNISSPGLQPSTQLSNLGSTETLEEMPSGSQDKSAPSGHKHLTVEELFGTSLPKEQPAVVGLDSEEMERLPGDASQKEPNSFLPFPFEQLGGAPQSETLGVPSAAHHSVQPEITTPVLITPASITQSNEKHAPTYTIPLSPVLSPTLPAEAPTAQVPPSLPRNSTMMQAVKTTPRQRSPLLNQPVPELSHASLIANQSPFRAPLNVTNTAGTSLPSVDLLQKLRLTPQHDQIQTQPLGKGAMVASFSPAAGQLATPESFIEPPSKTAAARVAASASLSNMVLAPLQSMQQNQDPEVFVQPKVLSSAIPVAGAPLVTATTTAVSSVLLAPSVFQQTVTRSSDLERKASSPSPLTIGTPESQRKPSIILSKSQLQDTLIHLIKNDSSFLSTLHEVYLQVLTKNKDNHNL
# UniProt Q8NA75: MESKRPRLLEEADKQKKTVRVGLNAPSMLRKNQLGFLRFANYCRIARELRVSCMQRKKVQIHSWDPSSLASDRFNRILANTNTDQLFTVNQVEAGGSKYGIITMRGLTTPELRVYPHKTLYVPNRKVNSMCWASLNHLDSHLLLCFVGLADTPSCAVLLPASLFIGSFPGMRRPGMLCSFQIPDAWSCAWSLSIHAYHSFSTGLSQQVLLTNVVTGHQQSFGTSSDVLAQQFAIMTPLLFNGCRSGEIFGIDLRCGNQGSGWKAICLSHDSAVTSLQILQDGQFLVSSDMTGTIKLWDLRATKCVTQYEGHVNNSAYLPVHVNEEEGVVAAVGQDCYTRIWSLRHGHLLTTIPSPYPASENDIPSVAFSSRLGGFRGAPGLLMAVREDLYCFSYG
# UniProt P21291: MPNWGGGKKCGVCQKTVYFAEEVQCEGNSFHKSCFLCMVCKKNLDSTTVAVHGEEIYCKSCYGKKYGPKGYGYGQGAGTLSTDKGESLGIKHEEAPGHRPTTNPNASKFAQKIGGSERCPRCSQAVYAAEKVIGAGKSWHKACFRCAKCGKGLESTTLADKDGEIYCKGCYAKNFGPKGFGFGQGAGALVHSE
# The other results are listed elsewhere or left out.
# Compound: CC1=C2C(=CC=C1)N=C(N(C2=O)C3=CC=CC=C3C)CN4C=NC5=C(N=CN=C54)N
# Test: log2 fold change, soluble protein after heating vs DMSO (PISA); higher = thermal stabilisation; K562 cells, 10 uM, 30 min; active = over 0.2 and 3.5 SD of the protein, either way, in both replicates (recomputed)
# Outline: (§1)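 Soluble protein was defined as the supernatant after 21,000xg for 90 min. It came from K562 cells at 2×10^6 cells/mL given 10 μM compound for 30 min, heated in aliquots for 3 min across 48°C-58°C, pooled, and extracted in PBS with 0.5% NP-40 at 4°C, and was quantified by TMTpro 16plex LC-MS/MS with equalised channel sums. Thermal stability against control samples, from duplicates, is reported as log2 fold change.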
row,Target,log2 fold change
1,CT45A10 (UniProt P0DMU9),inactive: -0.299
2,CYC1 (UniProt P08574),inactive: 0.03
3,DCPS (UniProt Q96C86),inactive: -0.02
4,CSTB (UniProt P04080),inactive: 0.069
5,DCTN4 (UniProt Q9UJW0),inactive: 0
6,CTU1 (UniProt Q7Z7A3),inactive: 0.052
7,CTTN (UniProt Q14247),inactive: 0.037
8,CTSC (UniProt P53634),inactive: -0.039
9,CUL4B (UniProt K4DI93),inactive: 0.045
10,CWF19L1 (UniProt Q69YN2),inactive: 0.073
11,DCAF1 (UniProt Q9Y4B6),inactive: 0.049
12,CTBS (UniProt Q01459),inactive: 0.014
13,D2HGDH (UniProt Q8N465),inactive: 0.004
14,DBT (UniProt P11182),inactive: 0.012
15,CTPS1 (UniProt P17812),inactive: 0.017
16,CYB5R4 (UniProt Q7L1T6),inactive: 0.049
17,CUTC (UniProt Q9NTM9),inactive: 0.055

row,Target,log2 fold change
1,CUL1 (UniProt Q13616),inactive: -0.007
2,CYP46A1 (UniProt Q9Y6A2),inactive: 0.205
3,CYB5R2 (UniProt Q6BCY4),inactive: 0.048
4,CSPP1 (UniProt Q1MSJ5),inactive: 0.09
5,DCTD isoform 2 (UniProt P32321),inactive: 0.011
6,DBI isoform 5 (UniProt P07108),inactive: 0.02
7,CSTF3 (UniProt Q12996),inactive: -0.007
8,CWC15 (UniProt Q9P013),inactive: -0.046
9,CTSL (UniProt P07711),inactive: 0.015
10,CTIF isoform 2 (UniProt O43310),inactive: 0.02
11,DCTN5 (UniProt Q9BTE1),inactive: 0.095
12,DCP1A (UniProt Q9NPI6),inactive: -0.006
13,DCAF6 isoform 3 (UniProt Q58WW2),inactive: 0.003
14,DCAF4L2 (UniProt Q8NA75),inactive: 0.027
15,DCTN3 (UniProt O75935),inactive: 0.141
16,DBN1 isoform 3 (UniProt Q16643),inactive: -0.027
17,CSRP1 (UniProt P21291),inactive: 0.002

# Compound: Cc1sc2c(c1C)C(c1ccc(Cl)cc1)=N[C@@H](CC(=O)OC(C)(C)C)c1nnc(C)n1-2
# Test: as above
# Outline: as §1
row,Target,log2 fold change
1,CT45A10 (UniProt P0DMU9),inactive: 0.087
2,CYC1 (UniProt P08574),inactive: -0.038
3,DCPS (UniProt Q96C86),inactive: 0
4,CSTB (UniProt P04080),inactive: -0.107
5,DCTN4 (UniProt Q9UJW0),inactive: 0.004
6,CTU1 (UniProt Q7Z7A3),inactive: -0.006
7,CTTN (UniProt Q14247),inactive: 0.003
8,CTSC (UniProt P53634),inactive: -0.01
9,CUL4B (UniProt K4DI93),inactive: -0.039
10,CWF19L1 (UniProt Q69YN2),inactive: 0.004
11,DCAF1 (UniProt Q9Y4B6),inactive: -0.023
12,CTBS (UniProt Q01459),inactive: -0.019
13,D2HGDH (UniProt Q8N465),inactive: -0.024
14,DBT (UniProt P11182),inactive: 0.062
15,CTPS1 (UniProt P17812),inactive: -0.003
16,CYB5R4 (UniProt Q7L1T6),inactive: 0.001
17,CUTC (UniProt Q9NTM9),inactive: -0.017

row,Target,log2 fold change
1,CUL1 (UniProt Q13616),inactive: -0.016
2,CYP46A1 (UniProt Q9Y6A2),inactive: -0.054
3,CYB5R2 (UniProt Q6BCY4),inactive: 0.017
4,CSPP1 (UniProt Q1MSJ5),inactive: 0.107
5,DCTD isoform 2 (UniProt P32321),inactive: -0.035
6,DBI isoform 5 (UniProt P07108),inactive: -0.042
7,CSTF3 (UniProt Q12996),inactive: 0.03
8,CWC15 (UniProt Q9P013),inactive: 0.052
9,CTSL (UniProt P07711),inactive: 0.031
10,CTIF isoform 2 (UniProt O43310),inactive: -0.026
11,DCTN5 (UniProt Q9BTE1),inactive: -0.018
12,DCP1A (UniProt Q9NPI6),inactive: 0.093
13,DCAF6 isoform 3 (UniProt Q58WW2),inactive: 0.032
14,DCAF4L2 (UniProt Q8NA75),inactive: 0.042
15,DCTN3 (UniProt O75935),inactive: -0.042
16,DBN1 isoform 3 (UniProt Q16643),inactive: 0.044
17,CSRP1 (UniProt P21291),inactive: -0.021

# Compound: c1ccc([C@@H]2C[C@H]2NC2CCNCC2)cc1
# Test: as above
# Outline: as §1
row,Target,log2 fold change
1,CT45A10 (UniProt P0DMU9),inactive: -0.132
2,CYC1 (UniProt P08574),inactive: 0
3,DCPS (UniProt Q96C86),inactive: 0.039
4,CSTB (UniProt P04080),inactive: 0.033
5,DCTN4 (UniProt Q9UJW0),inactive: 0.011
6,CTU1 (UniProt Q7Z7A3),inactive: -0.051
7,CTTN (UniProt Q14247),inactive: 0.01
8,CTSC (UniProt P53634),inactive: 0.056
9,CUL4B (UniProt K4DI93),inactive: -0.035
10,CWF19L1 (UniProt Q69YN2),inactive: 0.018
11,DCAF1 (UniProt Q9Y4B6),inactive: -0.021
12,CTBS (UniProt Q01459),inactive: -0.006
13,D2HGDH (UniProt Q8N465),inactive: -0.022
14,DBT (UniProt P11182),inactive: 0.007
15,CTPS1 (UniProt P17812),inactive: 0.007
16,CYB5R4 (UniProt Q7L1T6),inactive: -0.032
17,CUTC (UniProt Q9NTM9),inactive: 0.033

row,Target,log2 fold change
1,CUL1 (UniProt Q13616),inactive: 0.036
2,CYP46A1 (UniProt Q9Y6A2),inactive: 0.139
3,CYB5R2 (UniProt Q6BCY4),inactive: -0.011
4,CSPP1 (UniProt Q1MSJ5),inactive: 0.049
5,DCTD isoform 2 (UniProt P32321),inactive: 0
6,DBI isoform 5 (UniProt P07108),inactive: -0.013
7,CSTF3 (UniProt Q12996),inactive: -0.016
8,CWC15 (UniProt Q9P013),inactive: 0.047
9,CTSL (UniProt P07711),inactive: 0.104
10,CTIF isoform 2 (UniProt O43310),inactive: 0.007
11,DCTN5 (UniProt Q9BTE1),inactive: 0.053
12,DCP1A (UniProt Q9NPI6),inactive: 0.175
13,DCAF6 isoform 3 (UniProt Q58WW2),inactive: 0.027
14,DCAF4L2 (UniProt Q8NA75),inactive: 0.076
15,DCTN3 (UniProt O75935),inactive: -0.001
16,DBN1 isoform 3 (UniProt Q16643),inactive: 0.004
17,CSRP1 (UniProt P21291),inactive: -0.007
